For the assay, the target named is biotin-labeled p63 peptide (last 63 amino acid residues of human nucleolin, RGG carboxy-terminal domain) (human). Put plainly: pull-down; only the target purified.

By UniProt entry, the sequences of proteins in these tests, tags left out.
UniProt Q2A1M0: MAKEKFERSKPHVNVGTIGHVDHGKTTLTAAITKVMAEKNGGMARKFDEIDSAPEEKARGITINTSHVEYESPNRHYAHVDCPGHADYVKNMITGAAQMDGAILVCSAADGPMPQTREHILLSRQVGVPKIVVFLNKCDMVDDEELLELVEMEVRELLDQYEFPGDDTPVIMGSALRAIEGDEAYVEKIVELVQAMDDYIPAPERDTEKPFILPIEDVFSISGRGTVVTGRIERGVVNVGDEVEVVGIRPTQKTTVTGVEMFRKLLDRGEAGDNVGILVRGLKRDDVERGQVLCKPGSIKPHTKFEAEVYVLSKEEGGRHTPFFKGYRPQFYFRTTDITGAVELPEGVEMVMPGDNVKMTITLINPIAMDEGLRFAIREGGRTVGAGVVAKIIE

Results are given in words; binding and its absence hold for the method and conditions named. Binding seen in cells or lysates may run through a third protein. Some results given as binding are weak or reduced against the parent protein; the word gives no strength.

Take “elongation factor Tu (EF-Tu) present in Francisella tularensis LVS membrane proteins (from UniProt Q2A1M0 1-394)”: the binding entry was “binds”.

Source of the values: paper PMC2551611.
